PubChem BioAssay AID743454 | Peter MacCallum Cancer Centre, 2014
Purpose: 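Search for knock-downs that restore vorinostat killing in resistant colon cancer cells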 (primary screen). System: human HCT116-VR colon cancer cells, selected for vorinostat resistance. Reagents: siRNA pool against human genes, 40 nM siRNA pool. Time to read-out: vorinostat for 24 h, read-out about 72 h after transfection. Conditions: vorinostat at 2.5 µM final. Detection: 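Two measures, CellTiter-Fluor viability and luminescent caspase 3/7 activity, each as fold change against same-plate mock wells, mean of duplicates, then screen-wide robust z-score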. Scale: viability robust z-score: higher = more viable cells than screen typical; caspase robust z-score: higher = more caspase 3/7 activity than screen typical. Rule for the call: 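Hits are knock-downs in viability class RV1/RV2 or caspase class CA1/CA2, excluding ones that killed cells in the no-drug cell-count arm; hits then retested with single siRNAs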.
This is one part, drawn at random, of about 18,000 deposited reagents. In the full data, 450 (2.5%) got an active call. 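Single biological run; no consistent viability z cut-off exists, so the class columns, not z-scores, define the calls.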

gene symbol | viability hit class | caspase hit class | viability robust z-score | caspase robust z-score | activity call
CHTF8 (GeneID 54921) | no change | no change | 0.52 | -0.57 | inactive
SEPHS2 (GeneID 22928) | no change | no change | 0.15 | -0.24 | inactive
LYPLA2 (GeneID 11313) | no change | no change | 0.59 | 2.13 | inactive
OR6K2 (GeneID 81448) | no change | no change | 0.36 | -0.9 | inactive
URB2 (GeneID 9816) | no change | no change | -0.64 | 2.93 | inactive
C14orf93 (GeneID 60686) | no change | no change | -0.11 | 2.56 | inactive
SSBP2 (GeneID 23635) | no change | no change | 0.71 | 1.48 | inactive
ARHGAP28 (GeneID 79822) | no change | no change | -1.4 | 0.03 | inactive
GTF2H4 (GeneID 2968) | no change | no change | -0.34 | -0.24 | inactive
PEF1 (GeneID 553115) | no change | no change | 0.38 | 1.75 | inactive
LCTL (GeneID 197021) | no change | no change | 1.88 | -0.64 | inactive
IL3RA (GeneID 3563) | no change | no change | -0.62 | 1.64 | inactive
LETM2 (GeneID 137994) | no change | no change | 0.41 | 0.08 | inactive
XBP1 (GeneID 7494) | no change | no change | 1.68 | 0.2 | inactive
CYB5D1 (GeneID 124637) | no change | no change | 0.34 | -0.1 | inactive
IL5RA (GeneID 3568) | no change | no change | 0.55 | -0.62 | inactive
ASAH2 (GeneID 56624) | no change | no change | 0.39 | -0.92 | inactive
GGA3 (GeneID 23163) | no change | no change | 0.34 | -0.86 | inactive
TEDC2 (GeneID 80178) | no change | no change | -2.06 | 0.55 | inactive
RBM10 (GeneID 8241) | no change | no change | -1.59 | -1 | inactive

The list goes on, starting with the last 3 of the part before.
gene symbol | viability hit class | caspase hit class | viability robust z-score | caspase robust z-score | activity call
GGA3 (GeneID 23163) | no change | no change | 0.34 | -0.86 | inactive
TEDC2 (GeneID 80178) | no change | no change | -2.06 | 0.55 | inactive
RBM10 (GeneID 8241) | no change | no change | -1.59 | -1 | inactive
SYN1 (GeneID 6853) | no change | no change | -0.12 | -0.68 | inactive
ZNF81 (GeneID 347344) | no change | no change | 0.93 | 1.44 | inactive
SCN10A (GeneID 6336) | no change | no change | 0.48 | 0.9 | inactive
RPP21 (GeneID 79897) | no change | no change | -0.04 | -0.3 | inactive
SLC16A14 (GeneID 151473) | no change | no change | 0 | 1.75 | inactive
LINC01600 (GeneID 154386) | no change | no change | -1.36 | 0.22 | inactive
TMEM86A (GeneID 144110) | no change | no change | -0.28 | 0.67 | inactive
DCAF12L2 (GeneID 340578) | no change | no change | 0.75 | -0.16 | inactive
TRIML1 (GeneID 339976) | no change | no change | -1.29 | 0.82 | inactive
LRRC55 (GeneID 219527) | no change | no change | -0.52 | 2.64 | inactive
COL9A3 (GeneID 1299) | no change | no change | -2.28 | 0.06 | inactive
RPF2 (GeneID 84154) | no change | no change | -1.24 | -0.23 | inactive
EFNA2 (GeneID 1943) | no change | no change | -0.46 | -0.31 | inactive
IL38 (GeneID 84639) | no change | no change | -0.24 | -0.6 | inactive
TMEM183BP (GeneID 653659) | no change | no change | 0.15 | -0.24 | inactive
JOSD2 (GeneID 126119) | no change | no change | 0.74 | 0.22 | inactive
CCDC102B (GeneID 79839) | no change | no change | -0.55 | -1.06 | inactive
PDGFC (GeneID 56034) | no change | no change | 0.11 | -1.09 | inactive
MYO7A (GeneID 4647) | no change | no change | -0.32 | 2 | inactive
